Data on one substance can be found in US20240199717 (published 2024).

The data set can be described thus: Fmoc solid-phase peptide synthesis; HOSu/DCC activated esters, DIPEA. The conditions noted are these: whole synthesis, scale of the general procedure 30 mg precursor.

For the substance semaglutide, the “final purity (method not given)” value was “purity over 98%”.
